{"source": "patent US10117956B2", "about": "(Institute of Nuclear Energy Research Atomic Energy Council, …, priority 2013, dated 2018)", "test": "general procedure: Fmoc solid-phase peptide synthesis; HBTU and HOBt, DIEA", "conditions": "whole synthesis", "note": "End groups of sequences in plain letters are not given here."}
{"sequence": "CQWAVGHLM", "values": [{"measurement": "isolated yield", "result": "about 60%"}]}
